{"source": "the supplement of paper PMC11006884", "note": "The entries are a selection whose mix differs from that of the whole data set."}
{"compound": "COC(=O)C#Cc1ccccc1 [methyl 3-phenylpropiolate]", "assay": "log2 ratio of iodoacetamide-alkyne labeling of the cysteine site, DMSO over compound (competition); higher = stronger covalent engagement of the cysteine by the compound, active = 1 or more", "conditions": "500 µM; treatment time 1 h; system: HEK293T cell lysate", "outline": "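Three replicates, each with duplicate channels, were prepared from HEK293T lysate (2 mg/mL) treated with vehicle or electrophile at 500 µM for 1 h at ambient temperature. Iodoacetamide alkyne was then applied for 1 h, and samples were clicked to sCIP-TMT reagents, pooled, trypsin-digested overnight at 37 °C, enriched on streptavidin, acid-eluted and analysed on Orbitrap Eclipse LC-MS/MS with FAIMS, with FragPipe quantification. The log2 competition ratio per cysteine is the mean control-channel divided by the mean compound-channel reporter intensity. Cysteines quantified in only one replicate were left out.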"}
{"target": "RELA C105 (UniProt Q04206)", "log2 ratio of iodoacetamide-alkyne labeling": "inactive: 0.896"}
{"target": "CDC20 C364 (UniProt Q12834)", "log2 ratio of iodoacetamide-alkyne labeling": "active: 1.22"}
{"target": "PDCL C35 (UniProt Q13371)", "log2 ratio of iodoacetamide-alkyne labeling": "inactive: -0.0134"}
{"target": "GLO1 C61 (UniProt Q04760)", "log2 ratio of iodoacetamide-alkyne labeling": "inactive: -0.0479"}
{"target": "PPAT C100 (UniProt Q06203)", "log2 ratio of iodoacetamide-alkyne labeling": "inactive: 0.528"}
{"target": "UniProt Q02930_C80", "log2 ratio of iodoacetamide-alkyne labeling": "active: 1.09"}
{"target": "AKAP12 C1399 (UniProt Q02952)", "log2 ratio of iodoacetamide-alkyne labeling": "active: 1.16"}
{"target": "CDC16 C46 (UniProt Q13042)", "log2 ratio of iodoacetamide-alkyne labeling": "inactive: 0.152"}
{"target": "CTBP1 C312 (UniProt Q13363)", "log2 ratio of iodoacetamide-alkyne labeling": "inactive: 0.128"}
{"target": "TRAP1 C573 (UniProt Q12931)", "log2 ratio of iodoacetamide-alkyne labeling": "inactive: 0.154"}
{"target": "DHX9 C12 (UniProt Q08211)", "log2 ratio of iodoacetamide-alkyne labeling": "inactive: -0.068"}
{"target": "CSTF3 C628 (UniProt Q12996)", "log2 ratio of iodoacetamide-alkyne labeling": "inactive: 0.491"}
{"target": "NSUN2 C184 (UniProt Q08J23)", "log2 ratio of iodoacetamide-alkyne labeling": "inactive: -0.0329"}
{"target": "PTPN11 C318 (UniProt Q06124)", "log2 ratio of iodoacetamide-alkyne labeling": "inactive: 0.735"}
{"target": "DHX9 C438 (UniProt Q08211)", "log2 ratio of iodoacetamide-alkyne labeling": "inactive: 0.228"}
{"target": "AKAP12 C578 (UniProt Q02952)", "log2 ratio of iodoacetamide-alkyne labeling": "inactive: 0.281"}
{"target": "GRSF1 C476 (UniProt Q12849)", "log2 ratio of iodoacetamide-alkyne labeling": "inactive: 0.306"}
{"target": "NFX1 C1067 (UniProt Q12986)", "log2 ratio of iodoacetamide-alkyne labeling": "inactive: 0.112"}
{"target": "PRDX1 C173 (UniProt Q06830)", "log2 ratio of iodoacetamide-alkyne labeling": "inactive: 0.302"}
{"target": "AKAP12 C1407 (UniProt Q02952)", "log2 ratio of iodoacetamide-alkyne labeling": "active: 1.16"}
{"target": "RPL18A C64 (UniProt Q02543)", "log2 ratio of iodoacetamide-alkyne labeling": "inactive: -0.0795"}
{"target": "CEBPZ C374 (UniProt Q03701)", "log2 ratio of iodoacetamide-alkyne labeling": "inactive: 0.281"}
{"target": "NSUN2 C673 (UniProt Q08J23)", "log2 ratio of iodoacetamide-alkyne labeling": "inactive: 0.0214"}
{"target": "PSMD2 C779 (UniProt Q13200)", "log2 ratio of iodoacetamide-alkyne labeling": "inactive: -0.00697"}
{"target": "VAC14 C114 (UniProt Q08AM6)", "log2 ratio of iodoacetamide-alkyne labeling": "inactive: 0.408"}
{"target": "COASY C357 (UniProt Q13057)", "log2 ratio of iodoacetamide-alkyne labeling": "inactive: 0.165"}
{"target": "IFIT5 C476 (UniProt Q13325)", "log2 ratio of iodoacetamide-alkyne labeling": "inactive: 0.166"}
{"target": "FKBP4 C396 (UniProt Q02790)", "log2 ratio of iodoacetamide-alkyne labeling": "inactive: 0.0815"}
{"target": "G3BP1 C73 (UniProt Q13283)", "log2 ratio of iodoacetamide-alkyne labeling": "inactive: 0.276"}
{"target": "NNT C936 (UniProt Q13423)", "log2 ratio of iodoacetamide-alkyne labeling": "inactive: 0.364"}
{"target": "ATM C12 (UniProt Q13315)", "log2 ratio of iodoacetamide-alkyne labeling": "inactive: 0.177"}
{"target": "CHAF1A C492 (UniProt Q13111)", "log2 ratio of iodoacetamide-alkyne labeling": "inactive: 0.177"}
{"target": "EIF2B5 C196 (UniProt Q13144)", "log2 ratio of iodoacetamide-alkyne labeling": "inactive: 0.556"}
{"target": "UniProt Q13155_C23", "log2 ratio of iodoacetamide-alkyne labeling": "active: 1.24"}
{"target": "TP53BP1 C896 (UniProt Q12888)", "log2 ratio of iodoacetamide-alkyne labeling": "inactive: 0.0531"}
{"target": "EIF4G1 C662 (UniProt Q04637)", "log2 ratio of iodoacetamide-alkyne labeling": "inactive: 0.118"}
{"target": "UniProt Q09028_C138", "log2 ratio of iodoacetamide-alkyne labeling": "inactive: 0.334"}
{"target": "BPTF C1357 (UniProt Q12830)", "log2 ratio of iodoacetamide-alkyne labeling": "inactive: 0.53"}
